Measurements as given in doi:10.1101/2022.10.09.511391.
Results are given in words; binding and its absence hold for the method and conditions named. In cells and extracts the contact can be indirect. A yes stands for co-enrichment or nearness to the bait. Other partners may have been found. Where a sequence is shown, tags or fusion partners need not be part of it.

Biological target: T1, Flag-TRB3 (UniProt Q8K4K2)
T1 sequence: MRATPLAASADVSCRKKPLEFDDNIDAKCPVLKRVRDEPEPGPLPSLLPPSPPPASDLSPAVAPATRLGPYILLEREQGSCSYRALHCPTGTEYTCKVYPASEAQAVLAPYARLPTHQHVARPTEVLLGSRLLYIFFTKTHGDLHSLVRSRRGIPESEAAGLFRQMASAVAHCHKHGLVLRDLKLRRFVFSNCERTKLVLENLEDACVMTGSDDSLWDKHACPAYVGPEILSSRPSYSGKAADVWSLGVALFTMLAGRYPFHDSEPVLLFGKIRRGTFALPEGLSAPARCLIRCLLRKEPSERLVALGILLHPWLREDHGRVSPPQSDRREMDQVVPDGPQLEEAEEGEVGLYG
Assay: affinity purification with mass spectrometry

B1: Flightless-homolog 1 (Fli1), endogenous in Min6 cells (protein, UniProt Q9JJ28 1-1271)
chain: MEATGVLPFVRGVDLSGNDFKGGYFPENVKAMTSLRWLKLNRTGLCYLPEELAALQKLEHLSVSHNHLTTLHGELSSLPSLRAIVARANSLKNSGVPDDIFKLDDLSVLDLSHNQLTECPRELENAKNMLVLNLSHNGIDSIPNQLFINLTDLLYLDLSENRLESLPPQMRRLVHLQTLVLNGNPLLHAQLRQLPAMMALQTLHLRNTQRTQSNLPTSLEGLSNLSDVDLSCNDLTRVPECLYTLPSLRRLNLSSNQIAELSLCIDQWVHLETLNLSRNQLTSLPSAICKLTKLKKLYLNSNKLDFDGLPSGIGKLTSLEEFMAANNNLELIPESLCRCPKLKKLVLNKNRLVTLPEAIHFLTEIQVLDVRENPSLVMPPKPADRTAEWYNIDFSLQNQLRLAGASPATVAAAAAVGSGSKDPLARKMRLRRRKDSAQDVQAKQVLKGMSDVAQEKNKNQEESIDARAPGGKVRRWDQGLEKPRLDYSEFFTEDVGQLPGLTIWQIENFVPVLVEEAFHGKFYEADCYIVLKTFLDDSGSLNWEIYYWIGGEATLDKKACSAIHAVNLRNYLGAECRTVREEMGDESEEFLQVFDNDISYIEGGTASGFYTVEDTHYVTRMYRVYGKKNIKLEPVPLKGSSLDPRFVFLLDQGLDIYVWRGAQATLSNTTKARLFAEKINKNERKGKAEITLLVQGQEPPGFWDVLGGEPSEIKNHVPDDFWPPQPKLYKVGLGLGYLELPQINYKLSVEHKKRPKVELMPGMRLLQSLLDTRCVYILDCWSDVFIWLGRKSPRLVRAAALKLGQELCGMLHRPRHTVVSRSLEGTEAQVFKAKFKNWDDVLTVDYTRNAEAVLQGQGLSGKVKRDTEKTDQMKADLTALFLPRQPPMPLAEAEQLMEEWNEDLDGMEGFVLEGRKFTRLPEEEFGHFYTQDCYVFLCRYWVPVEYEEEEKTEDKEGKASAEAREGEEAAAEAEEKQPEEDFQCIVYFWQGREASNMGWLTFTFSLQKKFESLFPGKLEVVRMTQQQENPKFLSHFKRKFIIHRGKRKVTQGTLQPTLYQIRTNGSALCTRCIQINTDSSLLNSEFCFILKVPFESEDNQGIVYAWVGRASDPDEAKLAEDILNTMFDASYSKQVINEGEEPENFFWVGIGAQKPYDDDAEYMKHTRLFRCSNEKGYFAVTEKCSDFCQDDLADDDIMLLDNGQEVYMWVGTQTSQVEIKLSLKACQVYIQHTRSKEHERPRRLRLVRKGNEQRAFTRCFHAWSTFRQAPA
binding: binds
